Laboratory results from the supplement of paper PMC7580552.
Counter-ions that a name gives are not always drawn. Some of the results follow. Plates or batches differ in their baseline, so values are only roughly comparable.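 The strain is a K-12 laboratory model grown without shaking in 96-well plates, and biofilm is the crystal violet stain retained on the wells, read as absorbance. Drugs were picked as candidate specific biofilm blockers when they cut staining strongly but slowed free-floating growth by less than 70%.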

test system: Escherichia coli W3110; assay: biofilm formation (crystal violet staining) relative to untreated control; higher = more biofilm; details: 10 µM; 20-24 h; 30 °C; TB

Row | Structure (SMILES) | biofilm formation
1 | C[C@]12CCC(=O)C(O)=C1CC[C@@H]1[C@@H]2CC[C@]2(C)C(=O)CC[C@@H]12 [Formestane] | 44%
2 | CNC(C)(C)Cc1ccccc1 [Mephentermine hemisulfate] | 74%
3 | CN1[C@@H]2CC[C@H]1C[C@@H](OC(=O)C(CO)c1ccccc1)C2 (stereo partly specified) [Atropine sulfate monohydrate] | 90%
4 | CC(C)C[C@H]1C(=O)N2CCC[C@H]2[C@]2(O)O[C@](NC(=O)[C@@H]3C=C4c5cccc6[nH]c(Br)c(c56)C[C@H]4N(C)C3)(C(C)C)C(=O)N12 [Bromocryptine mesylate] | 45%
5 | CCNCC(O)c1cccc(O)c1 (stereo unspecified) [Etilefrine hydrochloride] | 67%
6 | CC(C)(N)Cc1ccccc1 [Phentermine hydrochloride] | 87%
7 | CN(C)C(=O)Oc1cccc([N+](C)(C)C)c1 [Neostigmine bromide] | 86%
8 | CNC(=O)Oc1ccc2c(c1)[C@]1(C)CCN(C)[C@@H]1N2C [Eserine hemisulfate salt] | 76%
9 | COc1ccc(C(CN(C)C)C2(O)CCCCC2)cc1 (stereo unspecified) [Venlafaxine] | 67%
10 | C[C@]12CC[C@@H](O)C[C@H]1CC[C@@H]1[C@@H]2CC[C@]2(C)C(=O)CC[C@@H]12 [3-alpha-Hydroxy-5-beta-androstan-17-one] | 70%
11 | CN(C)C(=O)Oc1ccc[n+](C)c1 [Pyridostigmine iodide] | 80%
12 | C#CCN(C)[C@H](C)Cc1ccccc1 [Selegiline hydrochloride] | 95%
13 | O=c1[nH]c2ccccc2n1C1CCN(CCCC(c2ccc(F)cc2)c2ccc(F)cc2)CC1 [Pimozide] | 55%
14 | CC1OC(OC2/C=C/C=C/C=C/C=C/CC/C=C/C=C/[C@H](C)[C@@H](O)[C@@H](C)[C@H](C)OC(=O)CC(O)CC(O)CC(O)CCC(O)C(O)C[C@]3(O)CC(O)C(C(=O)O)C(C2)O3)C(O)C(N)C1O (stereo partly specified) [Nystatine] | 51%
15 | NCCCNCCSP(=O)(O)O [Amifostine] | 69%
16 | CCC(=O)O[C@H]1CC[C@H]2[C@@H]3CCC4=CC(=O)CC[C@]4(C)[C@H]3CC[C@]12C [Testosterone propionate] | 82%
17 | COc1ccc(OC)c(C(O)C(C)N)c1 (stereo unspecified) [Methoxamine hydrochloride] | 55%
18 | C[C@@H]1CN([C@H]2CC[C@](C#N)(c3ccc(F)cc3)CC2)CC[C@]1(C(=O)O)c1ccccc1 [Levocabastine hydrochloride] | 107%
19 | O=C(CCCN1CCC(n2c(=O)[nH]c3ccccc32)CC1)c1ccc(F)cc1 [Benperidol] | 87%
20 | C=CCC1(CC(C)C)C(=O)NC(=O)NC1=O [Butalbital] | 93%
21 | NC(=O)OCCCc1ccccc1 [Phenprobamate] | 78%
22 | OC(c1ccccc1)(c1ccccc1)C1CCNCC1 [Azacyclonol] | 68%
23 | C[N+]1(C)CCCC(OC(=O)C(O)(c2ccccc2)c2ccccc2)C1 (stereo unspecified) [Mepenzolate bromide] | 83%

Row | Structure (SMILES) | biofilm formation
24 | CCCC(C)(COC(N)=O)COC(=O)NC(C)C (stereo unspecified) [Carisoprodol] | 79%
25 | C=C1C[C@@H]2[C@H](CC[C@]3(C)C(=O)CC[C@@H]23)[C@@]2(C)C=CC(=O)C=C12 [Exemestane] | 67%
26 | CC(=O)[C@H]1CC[C@H]2[C@@H]3CC[C@H]4C[C@H](O)CC[C@]4(C)[C@H]3C(=O)C[C@]12C [Alfaxalone] | 80%
27 | C[C@]12C/C(=C/O)C(=O)C[C@@H]1CC[C@@H]1[C@@H]2CC[C@@]2(C)[C@H]1CC[C@]2(C)O [Oxymetholone] | 69%
28 | COC[C@@H](NC(C)=O)C(=O)NCc1ccccc1 [Lacosamide] | 59%
29 | CN1C(=O)CCS(=O)(=O)C1c1ccc(Cl)cc1 (stereo unspecified) [Chlormezanone] | 52%
30 | C[C@]12COC(=O)C[C@@H]1CC[C@@H]1[C@@H]2CC[C@@]2(C)[C@H]1CC[C@]2(C)O [Oxandrolone] | 62%
31 | CCCCCC[C@H]1C(=O)O[C@H](C)[C@H](NC(=O)c2cccc(NC=O)c2O)C(=O)O[C@@H](C)[C@@H]1OC(=O)CC(C)C [Antimycin A] | 68%
32 | c1ccc2c(c1)OCC(C1=NCCN1)O2 (stereo unspecified) [Idazoxan hydrochloride] | 56%
33 | CC[N+]1(C)CCCC(OC(=O)C(O)(c2ccccc2)c2ccccc2)C1 (stereo unspecified) [Pipenzolate bromide] | 95%
34 | COc1cc2c(c(OC)c1OC)-c1ccc(OC)c(=O)cc1[C@@H](NC(C)=O)CC2 [Colchicine] | 48%
35 | CN1C[C@H](CNC(=O)OCc2ccccc2)C[C@@H]2c3cccc4c3c(cn4C)C[C@H]21 [Metergoline] | 48%
36 | CC(=O)O[C@H]1CC[C@@]2(C)C(=CC[C@@H]3[C@@H]2CC[C@]2(C)C(=O)CC[C@@H]32)C1 [Dehydroisoandosterone 3-acetate] | 50%
37 | O=C(NCNC(=O)NC1C(=O)NC(=O)N1CO)NC1C(=O)NC(=O)N1CO (stereo unspecified) [Imidurea] | 76%
38 | Oc1ccc2c3c1O[C@H]1[C@@H](O)CC[C@@]4(O)[C@@H](C2)N(CC2CCC2)CC[C@]314 [Nalbuphine hydrochloride] | 58%
39 | C[C@]12CC[C@H](O)C[C@H]1CC[C@@H]1[C@@H]2CC[C@]2(C)[C@@H](C3=CC(=O)OC3)CC[C@]12O [Digitoxigenin] | 60%
40 | CC(C)c1cccc(C(C)C)c1O [Propofol] | 69%
41 | CCOC(=O)c1cncn1[C@H](C)c1ccccc1 [Etomidate] | 85%
42 | CC(O)(CS(=O)(=O)c1ccc(F)cc1)C(=O)Nc1ccc(C#N)c(C(F)(F)F)c1 (stereo unspecified) [Bicalutamide] | 80%
43 | NCC1(CC(=O)O)CCCCC1 [Gabapentin] | 87%
44 | O=[N+]([O-])O[C@H]1CO[C@H]2[C@@H]1OC[C@H]2O[N+](=O)[O-] [Isosorbide dinitrate] | 96%
45 | C=C1CC[C@@]2(O)[C@H]3Cc4ccc(O)c5c4[C@@]2(CCN3CC2CC2)[C@H]1O5 [Nalmefene hydrochloride] | 76%
46 | O=C(CCCN1CCC2(CC1)C(=O)NCN2c1ccccc1)c1ccc(F)cc1 [Spiperone] | 50%

14 entries from above, set out differently.
Row	Structure (SMILES)	biofilm formation
25	C=C1C[C@@H]2[C@H](CC[C@]3(C)C(=O)CC[C@@H]23)[C@@]2(C)C=CC(=O)C=C12 [Exemestane]	67%
26	CC(=O)[C@H]1CC[C@H]2[C@@H]3CC[C@H]4C[C@H](O)CC[C@]4(C)[C@H]3C(=O)C[C@]12C [Alfaxalone]	80%
30	C[C@]12COC(=O)C[C@@H]1CC[C@@H]1[C@@H]2CC[C@@]2(C)[C@H]1CC[C@]2(C)O [Oxandrolone]	62%
31	CCCCCC[C@H]1C(=O)O[C@H](C)[C@H](NC(=O)c2cccc(NC=O)c2O)C(=O)O[C@@H](C)[C@@H]1OC(=O)CC(C)C [Antimycin A]	68%
32	c1ccc2c(c1)OCC(C1=NCCN1)O2 (stereo unspecified) [Idazoxan hydrochloride]	56%
34	COc1cc2c(c(OC)c1OC)-c1ccc(OC)c(=O)cc1[C@@H](NC(C)=O)CC2 [Colchicine]	48%
35	CN1C[C@H](CNC(=O)OCc2ccccc2)C[C@@H]2c3cccc4c3c(cn4C)C[C@H]21 [Metergoline]	48%
37	O=C(NCNC(=O)NC1C(=O)NC(=O)N1CO)NC1C(=O)NC(=O)N1CO (stereo unspecified) [Imidurea]	76%
39	C[C@]12CC[C@H](O)C[C@H]1CC[C@@H]1[C@@H]2CC[C@]2(C)[C@@H](C3=CC(=O)OC3)CC[C@]12O [Digitoxigenin]	60%
42	CC(O)(CS(=O)(=O)c1ccc(F)cc1)C(=O)Nc1ccc(C#N)c(C(F)(F)F)c1 (stereo unspecified) [Bicalutamide]	80%
43	NCC1(CC(=O)O)CCCCC1 [Gabapentin]	87%
44	O=[N+]([O-])O[C@H]1CO[C@H]2[C@@H]1OC[C@H]2O[N+](=O)[O-] [Isosorbide dinitrate]	96%
45	C=C1CC[C@@]2(O)[C@H]3Cc4ccc(O)c5c4[C@@]2(CCN3CC2CC2)[C@H]1O5 [Nalmefene hydrochloride]	76%
46	O=C(CCCN1CCC2(CC1)C(=O)NCN2c1ccccc1)c1ccc(F)cc1 [Spiperone]	50%
